According to the supplement of paper PMC8728848:
Some of the results follow.

Experiments:
Test in all cases: glycan array binding signal (z-score within array); higher = stronger binding
Details in all cases: glycan notation: IUPAC condensed, linker removed
[1] = molecular target: Neu5Ac(a2-6)Gal(b1-4)GlcNAc(b1-2)Man(a1-3)Man(b1-4)GlcNAc(b1-4)GlcNAc
Method in brief: (§1)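 Arrays were curated from the Consortium for Functional Glycomics database, 3228 in total, and kept only where the protein sequence was available. Binding is expressed as a within-array Z-score. This score was averaged across arrays of the same protein sequence at different concentrations or buffers and across linkers, and negative values can be read as non-binding.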

[2] = molecular target: Neu5Ac(a2-6)Gal(b1-4)GlcNAc(b1-2)Man(a1-3)[Gal(b1-4)GlcNAc(b1-2)Man(a1-6)]Man(b1-4)GlcNAc(b1-4)GlcNAc
Method in brief: as §1

[3] = molecular target: Neu5Ac(a2-6)Gal(b1-4)GlcNAc(b1-2)Man(a1-3)[GlcNAc(b1-2)Man(a1-6)]Man(b1-4)GlcNAc(b1-4)GlcNAc
Method in brief: as §1

[4] = molecular target: Neu5Ac(a2-6)Gal(b1-4)GlcNAc(b1-2)Man(a1-3)[GlcNAc(b1-2)Man(b1-4)GlcNAc(b1-2)Man(a1-6)]Man(b1-4)GlcNAc(b1-4)GlcNAc
Method in brief: as §1

[5] = molecular target: Neu5Ac(a2-6)Gal(b1-4)GlcNAc(b1-2)Man(a1-3)[Man(a1-6)]Man(b1-4)GlcNAc(b1-4)GlcNAc
Method in brief: as §1

[6] = molecular target: Neu5Ac(a2-6)Gal(b1-4)GlcNAc(b1-2)Man(a1-3)[Neu5Ac(a2-6)Gal(b1-4)GlcNAc(b1-2)Man(a1-6)]Man(b1-4)GlcNAc(b1-4)GlcNAc
Method in brief: as §1

[7] = molecular target: Neu5Ac(a2-6)Gal(b1-4)GlcNAc(b1-2)Man(a1-6)Man(b1-4)GlcNAc(b1-4)GlcNAc
Method in brief: as §1

[8] = molecular target: Neu5Ac(a2-6)Gal(b1-4)GlcNAc(b1-2)Man(a1-6)[Gal(b1-4)GlcNAc(b1-2)Man(a1-3)]Man(b1-4)GlcNAc(b1-4)GlcNAc
Method in brief: as §1

[9] = molecular target: Neu5Ac(a2-6)Gal(b1-4)GlcNAc(b1-2)Man(a1-6)[GlcNAc(b1-2)Man(a1-3)]Man(b1-4)GlcNAc(b1-4)GlcNAc
Method in brief: as §1

[10] = molecular target: Neu5Ac(a2-6)Gal(b1-4)GlcNAc(b1-2)Man(a1-6)[Man(a1-3)]Man(b1-4)GlcNAc(b1-4)GlcNAc
Method in brief: as §1

[11] = molecular target: Neu5Ac(a2-6)Gal(b1-4)GlcNAc(b1-3)Gal(b1-3)GlcNAc
Method in brief: as §1

[12] = molecular target: Neu5Ac(a2-6)Gal(b1-4)GlcNAc(b1-3)Gal(b1-4)GlcNAc
Method in brief: as §1

[13] = molecular target: Neu5Ac(a2-6)Gal(b1-4)GlcNAc(b1-3)Gal(b1-4)GlcNAc(b1-3)Gal(b1-4)GlcNAc
Method in brief: as §1

[14] = molecular target: Neu5Ac(a2-6)Gal(b1-4)GlcNAc(b1-3)Gal(b1-4)[Fuc(a1-3)]GlcNAc(b1-3)Gal(b1-4)[Fuc(a1-3)]GlcNAc
Method in brief: as §1

[15] = molecular target: Neu5Ac(a2-6)Gal(b1-4)GlcNAc(b1-3)GalNAc
Method in brief: as §1

[16] = molecular target: Neu5Ac(a2-6)Gal(b1-4)GlcNAc6S
Method in brief: as §1

Neu5Ac(a2-6)GalNAc = molecular target: Neu5Ac(a2-6)GalNAc
Method in brief: as §1

[17] = molecular target: Neu5Ac(a2-6)GalNAc(b1-4)GlcNAc
Method in brief: as §1

[18] = molecular target: Neu5Ac(a2-6)GlcNAc(b1-4)GlcNAc
Method in brief: as §1

[19] = molecular target: Neu5Ac(a2-6)GlcNAc(b1-4)GlcNAc(b1-4)GlcNAc
Method in brief: as §1

Neu5Ac(a2-8)Neu5Ac = molecular target: Neu5Ac(a2-8)Neu5Ac
Method in brief: as §1

[20] = molecular target: Neu5Ac(a2-8)Neu5Ac(a2-3)Gal(b1-4)Glc
Method in brief: as §1

[21] = molecular target: Neu5Ac(a2-8)Neu5Ac(a2-3)[GalNAc(b1-4)]Gal(b1-4)Glc
Method in brief: as §1

[22] = molecular target: Neu5Ac(a2-8)Neu5Ac(a2-8)Neu5Ac
Method in brief: as §1

[23] = molecular target: Neu5Ac(a2-8)Neu5Ac(a2-8)Neu5Ac(a2-3)Gal(b1-4)Glc
Method in brief: as §1

[24] = molecular target: Neu5Ac(a2-8)Neu5Ac(a2-8)Neu5Ac(a2-3)[GalNAc(b1-4)]Gal(b1-4)Glc
Method in brief: as §1

[25] = molecular target: Neu5Ac(a2-8)Neu5Ac(a2-8)Neu5Ac(a2-8)Neu5Ac(a2-3)[GalNAc(b1-4)]Gal(b1-4)Glc
Method in brief: as §1

[26] = molecular target: Neu5Ac(b2-6)Gal(b1-4)GlcNAc
Method in brief: as §1

Neu5Ac(b2-6)GalNAc = molecular target: Neu5Ac(b2-6)GalNAc
Method in brief: as §1

[27] = molecular target: Neu5Ac9Ac(a2-3)Gal(b1-3)GlcNAc
Method in brief: as §1

[28] = molecular target: Neu5Ac9Ac(a2-3)Gal(b1-4)GlcNAc
Method in brief: as §1

[29] = molecular target: Neu5Ac9Ac(a2-6)Gal(b1-4)GlcNAc
Method in brief: as §1

[30] = molecular target: Neu5Gc(a2-3)Gal(b1-3)GlcNAc
Method in brief: as §1

[31] = molecular target: Neu5Gc(a2-3)Gal(b1-3)[Fuc(a1-4)]GlcNAc
Method in brief: as §1

Neu5Gc(a2-3)Gal(b1-4)Glc = molecular target: Neu5Gc(a2-3)Gal(b1-4)Glc
Method in brief: as §1

[32] = molecular target: Neu5Gc(a2-3)Gal(b1-4)GlcNAc
Method in brief: as §1

[33] = molecular target: Neu5Gc(a2-3)Gal(b1-4)[Fuc(a1-3)]GlcNAc
Method in brief: as §1

[34] = molecular target: Neu5Gc(a2-6)Gal(b1-4)GlcNAc
Method in brief: as §1

Neu5Gc(a2-6)GalNAc = molecular target: Neu5Gc(a2-6)GalNAc
Method in brief: as §1

[35] = molecular target: Neu5Gc(b2-6)Gal(b1-4)GlcNAc
Method in brief: as §1

B1: SRS2 (Toxoplasma gondii), O15695 (protein)
chain: MATRASLARQKTGAACLAVLTASPSVVAAKPWKRWVGVSVILASAFAVGVSAGPPYRYEPEKFTCRPKKGILSQWVSLLYQVQHNITFACEEATPVPTTLISEEHGLMVCAENMTPEECEANPAPLSAFLPGATKEWVTGDSVLTGLKISVPESQYPANAKSFRVGCRHNTKTGNTCMLTIHVEPRDPAVERQEARCSYTENSTLPKIFVTKDSNTMTLACGPHGAPMPESYTENYCSTPDTCDEKPFTSVIPGYLSKWFFGDPKSPLGARVRIPPEQIPSSPQINYFGCTGPTEGEGPKYNCTVPVPLGGGDPSEGSRPGGGSGGGKRGGGQGGGGSLAGFDFRQGSARHSLPSRMALSASALLAMTALAY
glycan array binding signal (z-score) [1]: -0.634
glycan array binding signal (z-score) [2]: 0.655
glycan array binding signal (z-score) [3]: 1.19
glycan array binding signal (z-score) [4]: -0.782
glycan array binding signal (z-score) [5]: -0.245
glycan array binding signal (z-score) [6]: -0.029
glycan array binding signal (z-score) [7]: -0.221
glycan array binding signal (z-score) [8]: -0.203
glycan array binding signal (z-score) [9]: -0.495
glycan array binding signal (z-score) [10]: 0.39
glycan array binding signal (z-score) [11]: -0.224
glycan array binding signal (z-score) [12]: -1.13
glycan array binding signal (z-score) [13]: -0.155
glycan array binding signal (z-score) [14]: 0.576
glycan array binding signal (z-score) [15]: -0.248
glycan array binding signal (z-score) [16]: -0.529
glycan array binding signal (z-score) (Neu5Ac(a2-6)GalNAc): -0.444
glycan array binding signal (z-score) [17]: -0.117
glycan array binding signal (z-score) [18]: -0.439
glycan array binding signal (z-score) [19]: -0.445
glycan array binding signal (z-score) (Neu5Ac(a2-8)Neu5Ac): -0.204
glycan array binding signal (z-score) [20]: 0.564
glycan array binding signal (z-score) [21]: 0.109
glycan array binding signal (z-score) [22]: -0.03
glycan array binding signal (z-score) [23]: 0.675
glycan array binding signal (z-score) [24]: 0.301
glycan array binding signal (z-score) [25]: -0.082
glycan array binding signal (z-score) [26]: 0.865
glycan array binding signal (z-score) (Neu5Ac(b2-6)GalNAc): -0.634
glycan array binding signal (z-score) [27]: -1.14
glycan array binding signal (z-score) [28]: -0.016
glycan array binding signal (z-score) [29]: -0.343
glycan array binding signal (z-score) [30]: -0.209
glycan array binding signal (z-score) [31]: -0.409
glycan array binding signal (z-score) (Neu5Gc(a2-3)Gal(b1-4)Glc): -0.697
glycan array binding signal (z-score) [32]: -0.295
glycan array binding signal (z-score) [33]: -0.229
glycan array binding signal (z-score) [34]: -0.03
glycan array binding signal (z-score) (Neu5Gc(a2-6)GalNAc): -0.068
glycan array binding signal (z-score) [35]: -0.695
